# Data taken from article PMC7819943, “Rice protein-binding microarrays: a tool to detect cis-acting elements near promoter regions in rice”.
# Amino acid sequences for entries named in this document (tags omitted).
# UniProt Q0JBA9, entry or part of it: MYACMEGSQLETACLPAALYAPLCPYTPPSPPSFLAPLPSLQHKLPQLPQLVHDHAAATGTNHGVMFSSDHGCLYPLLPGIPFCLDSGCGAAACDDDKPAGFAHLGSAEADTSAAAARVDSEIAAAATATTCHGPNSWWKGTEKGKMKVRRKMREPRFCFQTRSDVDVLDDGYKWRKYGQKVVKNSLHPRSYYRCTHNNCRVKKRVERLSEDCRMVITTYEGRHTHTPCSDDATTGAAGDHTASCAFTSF
# The other results are listed elsewhere or left out.
# Molecular target: OsWRKY34 (Oryza sativa, UniProt Q0JBA9 1-250)
# Assay: protein-binding microarray (RPBM); PBS, 2% BSA, 51.3 ng/ul salmon testes DNA, 50 uM zinc acetate, 200 nM TF, 25 C, 1 h; high values mean tight binding
# Settings: protein: recombinant; tags: N-terminal polyhistidine and DsRed monomer fusion (pET32a); label: CyDye5-dUTP incorporated in the synthesized complementary strand; 3' TTTTT single-stranded linker to array surface; dsDNA, one strand shown
# Method in brief: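 An Axon 4000B scanner gave the binding signal as per-feature fluorescence intensity in arbitrary units. This followed washing of a custom Agilent array that had been incubated for 1 h at 25 °C with 200 nM protein in PBS, 2% BSA, salmon testes DNA and 50 µM zinc acetate. The proteins were transcription factors fused at the N-terminus to polyhistidine and DsRed, expressed in E. coli BL21-CodonPlus and purified on Ni–NTA.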
row,Sequence,binding signal
1,GATTTAGGCTGCTCCACTACTTCACTCTAGATTTAACTTTCGGAGTCACCTAGTGCAG,13100 fluorescence intensity (a.u.)
2,GCTGACTACGAATCTGTAGCTTGTTGTTTTTCTCTTTTCTCGGAGTCACCTAGTGCAG,11100 fluorescence intensity (a.u.)
3,GGAGCACTCCGTCTCCCACCCGTTGACCCGAGCGAGCTCCCGGAGTCACCTAGTGCAG,10000 fluorescence intensity (a.u.)
4,GGTCCACCCATGGCCACCCGTTGCTATGGCGCTCATGAGCCGGAGTCACCTAGTGCAG,8830 fluorescence intensity (a.u.)
5,TTCAAATTTTTTTCGTTCATTTTATGGTCTCTTTTTGCGACGGAGTCACCTAGTGCAG,10100 fluorescence intensity (a.u.)
6,AGTTCTATATAAGTTGCTGAGCCCACATGGAGATATTACACGGAGTCACCTAGTGCAG,8090 fluorescence intensity (a.u.)
7,CTCACCTACCGCATCTGTGTTCCTTTTGCTTTCTTTCTTTCGGAGTCACCTAGTGCAG,18100 fluorescence intensity (a.u.)
8,GAGGAAGCAGTTTACTCTCCTTTCTATGTGTATTTGATTACGGAGTCACCTAGTGCAG,9150 fluorescence intensity (a.u.)
9,TCCCTCTAGCATAGTGCTGATCTTGCCCATTCAGTGTTTCCGGAGTCACCTAGTGCAG,10100 fluorescence intensity (a.u.)
10,AAAATCCGCTCGCTCGCAGGTCTCCGCCTCACACCAACACCGGAGTCACCTAGTGCAG,8740 fluorescence intensity (a.u.)
11,CGTGCATCCGCTGCGCTGTGCTGCCATTTCTCTTCAGCTTCGGAGTCACCTAGTGCAG,10600 fluorescence intensity (a.u.)
12,TCATACACATATTTTCCTTTTCCGTATGTATAGTAAATTACGGAGTCACCTAGTGCAG,8800 fluorescence intensity (a.u.)
13,TGATTTTTGTCCCACGTGGCATTGACGTGGCGCTTATGTGCGGAGTCACCTAGTGCAG,8850 fluorescence intensity (a.u.)
14,AATATGTACTACTTCCGTTTCAGGTTATAAGACTTTCTAGCGGAGTCACCTAGTGCAG,8400 fluorescence intensity (a.u.)
15,TTTATCTCTATTTGCTGTGTTACTCTCGAGTTTTAGTTTCCGGAGTCACCTAGTGCAG,13100 fluorescence intensity (a.u.)
16,GCCGTGCGCCGCTCGCCGCTCGCCGCGCGCTGTCGATGCCCGGAGTCACCTAGTGCAG,8200 fluorescence intensity (a.u.)
17,CATTGCCATCTTACATTTCTACTCATCTGTCCTCCAAATCCGGAGTCACCTAGTGCAG,8500 fluorescence intensity (a.u.)
18,ACCACCACCTTCGCCACGAGCTCCACGCCGTTGCCACTGTCGGAGTCACCTAGTGCAG,8460 fluorescence intensity (a.u.)
19,CCCTCCACCACCACCCGCCGCCGCCGCCGCCCAAAACCCTCGGAGTCACCTAGTGCAG,10000 fluorescence intensity (a.u.)
20,GTTCTTCCCGCCGGCCTATCGTATTACCGAAATTTGATAGCGGAGTCACCTAGTGCAG,8680 fluorescence intensity (a.u.)
21,ATCACCAGTTGCCATTCTGTCACCTCAACTTAGAACATACCGGAGTCACCTAGTGCAG,8290 fluorescence intensity (a.u.)

# Another view of some results above.
row | Sequence | binding signal
1 | GATTTAGGCTGCTCCACTACTTCACTCTAGATTTAACTTTCGGAGTCACCTAGTGCAG | 13100 fluorescence intensity (a.u.)
9 | TCCCTCTAGCATAGTGCTGATCTTGCCCATTCAGTGTTTCCGGAGTCACCTAGTGCAG | 10100 fluorescence intensity (a.u.)
15 | TTTATCTCTATTTGCTGTGTTACTCTCGAGTTTTAGTTTCCGGAGTCACCTAGTGCAG | 13100 fluorescence intensity (a.u.)

# (continued)

row,Sequence,binding signal
1,CCATCCATTTCTTGCTGAATTCTCTCTTCTTTAATTCATCCGGAGTCACCTAGTGCAG,8920 fluorescence intensity (a.u.)
2,TGAGGATGCTTTATATATATGCTGGTTTTATGGTTGATAACGGAGTCACCTAGTGCAG,8730 fluorescence intensity (a.u.)
3,GGGAGGGGTTGGGAACTTGAAGGAAAGAACACAGCCTTAACGGAGTCACCTAGTGCAG,11300 fluorescence intensity (a.u.)
4,ACTTTTTCCATTACAGTTTGGGTTGAACATGTTGGGCCTTCGGAGTCACCTAGTGCAG,8170 fluorescence intensity (a.u.)
5,ACTGCTGATATGTTATCCTTTTTTACTGCAGATAAACTTCCGGAGTCACCTAGTGCAG,8560 fluorescence intensity (a.u.)
6,CTCATGCTGCTAGATACGCTAGTACTTCCTAAGGCTACTTCGGAGTCACCTAGTGCAG,8830 fluorescence intensity (a.u.)
7,TGTATTTCCTTTCCTTTGTACAAGTTCAATCCTAGATAGTCGGAGTCACCTAGTGCAG,9410 fluorescence intensity (a.u.)
8,TACTTGGGTGGGAATGGGTTGAATTGGGATTCTAATCTGCCGGAGTCACCTAGTGCAG,13500 fluorescence intensity (a.u.)
9,TTGTTGACCATGACCTAACTCTGACCATGAATCGTCTTCTCGGAGTCACCTAGTGCAG,11700 fluorescence intensity (a.u.)
10,TAACATCATTCCCATAGCGCTATCCATCCATATAATCAAACGGAGTCACCTAGTGCAG,8180 fluorescence intensity (a.u.)
11,CGGGGAGGAGGGAGGAATAAATACGTCCTAGTCGATCAGCCGGAGTCACCTAGTGCAG,8150 fluorescence intensity (a.u.)
12,CTTTCTGTACAATGTTTTGTACTACTCCGTTTCACAATATCGGAGTCACCTAGTGCAG,8540 fluorescence intensity (a.u.)
13,TGGGACATTTTCGGGGTATACTTTCATTCTCCCGATTCTACGGAGTCACCTAGTGCAG,9820 fluorescence intensity (a.u.)
14,TCCTCGTCACTCCACTATCGAATCCACCTCCATCATTGACCGGAGTCACCTAGTGCAG,12000 fluorescence intensity (a.u.)
15,AGCGTGTACATCCCTGTTAACTTGGCCTGTCGGACCTCATCGGAGTCACCTAGTGCAG,9340 fluorescence intensity (a.u.)
16,GCTGCATTTGTTCTTGGCACAAACTTTGGAGTTTTTATTTCGGAGTCACCTAGTGCAG,8650 fluorescence intensity (a.u.)
17,GCAGGACGATCTCATTTGTGTTCCTATTTTACAGGTCAAACGGAGTCACCTAGTGCAG,9320 fluorescence intensity (a.u.)
18,TCCATCCAACGCCCGTCCTTGCTTTAATTTGTTTCACCACCGGAGTCACCTAGTGCAG,8940 fluorescence intensity (a.u.)
19,ATCCTCACCGCCCGTCCGCGCCGTGCACGCTCCCAGATCACGGAGTCACCTAGTGCAG,9660 fluorescence intensity (a.u.)
20,TTGGGTGGGATTTAAACAGGGTATTAGTGGATAATGATGTCGGAGTCACCTAGTGCAG,9570 fluorescence intensity (a.u.)
21,GTACCATAAAGTCATTCCTGTTTCGGCCCAAATTGCCCAACGGAGTCACCTAGTGCAG,9540 fluorescence intensity (a.u.)
